# Assay results taken from paper PMC5996148.
# The other results are listed elsewhere or left out.
# Experiments:
# Assay in all cases: protein microarray (ProtoArray v5.0), streptavidin-Alexa Fluor 647
# Conditions in all cases: 3'-biotin; 20 mM Tris (pH 7.5), 5 mM MgCl2, 100 mM KCl, 0.1% Tween-20, A/T-rich and random oligonucleotide blockers; temperature not stated; high values mean tight binding
# [1] = test system: 1-aminocyclopropane-1-carboxylate synthase-like protein 1 (human)
# [2] = test system: 14-3-3 protein sigma (human)
# [3] = test system: 2-oxoglutarate and iron-dependent oxygenase domain-containing protein 2 (human)
# [4] = test system: 26S protease regulatory subunit S10B (human)
# [5] = test system: 26S proteasome non-ATPase regulatory subunit 7 (human)
# [6] = test system: 3 beta-hydroxysteroid dehydrogenase type 7 (human)
# [7] = test system: 3-hydroxyanthranilate 3,4-dioxygenase (human)
# [8] = test system: 3-keto-steroid reductase (human)
# [9] = test system: 39S ribosomal protein L28, mitochondrial (human)
# [10] = test system: 4-hydroxyphenylpyruvate dioxygenase (human)
sequence,measurement,setting,value
GGGAGGCTGAGGCAGG [G4-1 biotinylated (PQS2)],binding signal,[1],-0.314 z-score
same,binding signal,[2],-0.362 z-score
same,binding signal,[3],-0.32 z-score
same,binding signal,[4],-0.239 z-score
same,binding signal,[5],-0.375 z-score
same,binding signal,[6],-0.319 z-score
same,binding signal,[7],-0.355 z-score
same,binding signal,[8],-0.343 z-score
same,binding signal,[9],-0.304 z-score
same,binding signal,[10],-0.333 z-score

# Shown bar-delimited: entries from further up
sequence | measurement | setting | value
GGGAGGCTGAGGCAGG [G4-1 biotinylated (PQS2)] | binding signal | [6] | -0.319 z-score
same | binding signal | [7] | -0.355 z-score
